Tested on: 3T3-L1 adipocytes
Test: Proteomic analysis of adipocytes by LC MS/MS
Format: cell-based, Mus musculus
Settings: 10 μM
Experimental: 3T3-L1 preadipocytes were induced to differentiate into mature adipocytes with the same culture condition as described elsewhere. […] Avasimibe or DMSO was replaced freshly every 48 h. Each condition was cultured in triplicate. On day 6, adipocytes were washed with 1×PBS and scraped off the culture dishes. Adipocyte cell pellets were collected after centrifugation and subsequently digested with trypsin (Sigma-Aldrich, St. Louis MO, USA) at the Ratio of 1:50 (μg/μg) Trypsin to Protein. The tryptic peptides after trypsin digestion were separated on a nano LC system (1100 Series LC, Agilent Technologies, Santa Clara, CA) as described previously (D'Aquila, et al. 2015). Briefly, peptides were concentrated with Agilent 300SB-C18 enrichment column and separated with C18 reversed phase ZORBAX 300SB-C18 column. High resolution hybrid ion trap mass spectrometer LTQ-Orbitrap LX (Thermo Fisher Scientific, Waltham MA, USA) was employed to identify the peptides in the data-dependent positive acquisition mode. These experiments were done in Bindley Bioscience Center. We used the MaxQuant computational proteomics platform version 1.5.3.17 (Cox and Mann, 2008) to analyze the results from LC MS/MS analysis. The Mus musculus (24754 entries) sequence from UNIPROT retrieved on Sep. 1, 2015 and a common contaminants database were used as our reference databases. MaxQuant was set with parameters as follows: minimum peptides length was set to seven amino acids, and “Match between runs” interval was set to one minute; The FASTA databases were randomized and 1% of protein false discovery rate was allowed; With trypsin digestion, two missed cleavages were accepted; Three modifications per peptide were allowed, including one fixed modification as “Iodoethanol” and variable modifications as “Oxidation (M)” and “Acetyl (Protein N-term)”; Initial precursor was set to 0.07 and fragment mass tolerance set to 0.02 Da; Data were analyzed with “Label-free quantification” (LFQ) checked. The MaxQuant results were used in in-house script to remove all the common contaminant proteins and to calculate the average LFQ intensity values for the biological replicates and log transform [log2(x)]. The missing values were left blank unless indicated. A two tailed student t-test was performed on the LFQ intensity.

CC(C)c1cc(C(C)C)c(CC(=O)NS(=O)(=O)Oc2c(C(C)C)cccc2C(C)C)c(C(C)C)c1 [avasimibe]
number of identified proteins with decreased levels (Day 2-Day 6, of 236 proteins): 76 proteins
number of identified proteins with increased levels (Day 2-Day 6, of 236 proteins): 102 proteins
number of proteins not altered significantly (Day 2-Day 6, of 236 proteins): 58 proteins
number of proteins decreased >2-fold (filter >2-fold change): 53 proteins
number of proteins increased >2-fold (filter >2-fold change): 22 proteins
